# Laboratory results from patent publication US20130172294A1, “Treatment with VB-201” (Vascular Biogenics Ltd., priority 2010, published 2013).
# For at least one compound, name, drawing or mass did not settle the structure.
# Assays:
# Assay type in all cases: in vivo, human
# [1] = Single-dose pharmacokinetics of VB-201 in plasma (Example 1)
# Procedure: Determination of VB-201 concentrations in plasma was performed using an HPLC-MS/MS (high performance liquid chromatography with tandem mass spectrometric detection) assay. Calibration was for a range of from 5 to 500 ng/ml for low doses and from 50 to 5000 ng/ml for high doses. Pharmacokinetic parameters were estimated by using a non-compartmental method, except for the AUC (area under curve), which was determined using a (log-) trapezoidal rule as the area above the previous trough level. […] All subjects were healthy male volunteers. Five cohorts of six subjects each received a single dose of 1, 3, 10, 30 or 50 mg VB-201. 10 subjects received a placebo. The VB-201 was formulated in gelatin capsules enterocoated with Eudragit®. […] Evaluation of relative bioavailability was performed for the primary target parameters AUC (area under the concentration-time curve) and Cmax-(maximum plasma concentration).
# [2] = Repeated daily dose pharmacokinetics, 40 and 80 mg (Example 4)
# Procedure: Determination of VB-201 concentrations in plasma was performed using an HPLC-MS/MS (high performance liquid chromatography with tandem mass spectrometric detection) assay. Calibration was for a range of from 5 to 500 ng/ml for low doses and from 50 to 5000 ng/ml for high doses. Pharmacokinetic parameters were estimated by using a non-compartmental method, except for the AUC (area under curve), which was determined using a (log-) trapezoidal rule as the area above the previous trough level. […] The subjects were all healthy volunteers. […] 6 subjects received a placebo. The VB-201 was formulated in non-enterocoated capsules. Blood was collected for pharmacokinetic evaluation on day 1 (40 mg cohort) and on day 14 (40 and 80 mg cohorts).
# [3] = Repeated daily dose pharmacokinetics of VB-201 in plasma, 14 days (Example 2)
# Procedure: Determination of VB-201 concentrations in plasma was performed using an HPLC-MS/MS (high performance liquid chromatography with tandem mass spectrometric detection) assay. Calibration was for a range of from 5 to 500 ng/ml for low doses and from 50 to 5000 ng/ml for high doses. Pharmacokinetic parameters were estimated by using a non-compartmental method, except for the AUC (area under curve), which was determined using a (log-) trapezoidal rule as the area above the previous trough level. […] The subjects were all healthy volunteers. […] 10 subjects received a placebo. The VB-201 was formulated in gelatin capsules enterocoated with Opadry AMB and Acryleze White. The 20 mg dose was originally in the form of 20 mg capsules. […] Pharmacokinetic blood samples for VB-201 determination were collected on Day 0 and Day 14, prior to dosing and 2, 4, 6, 8, 10, 12, 16 and 24 hours after dosing. […] Pharmacokinetic samples were also collected on Day 12 and Day 13, before dosing. Concentration-time curves were constructed for a time period of 24 hours on each of days 1 and 14. In addition, urine samples from the subjects receiving 30 mg VB-201 were assayed for VB-201 by high performance liquid chromatography-tandem mass spectrometry. […] The limit of detection was 1 ng/ml.
# [4] = Effect of food and capsule coating on single-dose pharmacokinetics (Example 3)
# Procedure: Determination of VB-201 concentrations in plasma was performed using an HPLC-MS/MS (high performance liquid chromatography with tandem mass spectrometric detection) assay. Calibration was for a range of from 5 to 500 ng/ml for low doses and from 50 to 5000 ng/ml for high doses. Pharmacokinetic parameters were estimated by using a non-compartmental method, except for the AUC (area under curve), which was determined using a (log-) trapezoidal rule as the area above the previous trough level. All calculations were made using PKWizard (developed by Russell Barbare and Dr. […] was validated against WinNonlin (Pharsight Corp.), which is an FDA-recognized validated program. Pharmacokinetic parameters were calculated by the program according to standard methods used in the art. Calculation of the pharmacokinetic characteristics was based on the actual blood sampling time (in hours), with predose times set to zero. Concentrations below the LLOQ (lower limit of quantification; 4.974 ng/ml) were assumed to be zero. The effects of food on the pharmacokinetics of enteric coated and non-coated VB-201 capsules were investigated in a double-blind, placebo-controlled study in healthy subjects. Cohorts of six subjects each received a single dose of 10 mg, 2×10 mg or 20 mg VB-201 in the morning. […] Subjects were randomly assigned to receive the drug when fed (i.e., following completion of a standardized high fat meal) or when fasting (i.e., fasting for at least 10 hours). […] Subjects then underwent an additional 8 day washout period, after which subjects underwent a second administration. Subjects who received the first administration when fasting, received the second administration when fed, and subjects who received the first administration when fed, received the second administration when fasting. Following the second administration, blood samples were taken at the same times post-dose as previously. Concentration-time curves were constructed for time periods of up to 144 hours. Pharmacokinetic parameters were calculated based on data for the first 24 hours and for the whole 144 hours. […] Nevertheless, parameters were also calculated from data covering the first 24 hours in order to compare parameters with previous studies. Statistical comparisons of doses, coated vs. non-coated capsules, feeding vs. fasting and coating-feeding interactions were performed using a mixed model ANOVA in an SAS 8.02 software package (SAS Institute, Cary, N.C.) using PROC MIXED
smiles,measurement,setting,value
"CCCCCCCCCCCCCCCCOCC(COP(=O)([O-])OCC[N+](C)(C)C)OCCCCC(=O)O (stereo not drawn) [VB-201, 1-hexadecyl-2-(4′-carboxybutyl)-glycerol-3-phosphocholine]",Vz/F,[1]; single oral dose 1 mg,88 ± 10 L
same,Vz/F,[1]; single oral dose 3 mg,79 ± 21 L
same,Vz/F,[1]; single oral dose 10 mg,93 ± 32 L
same,Vz/F,[1]; single oral dose 30 mg,74 ± 22 L
same,Vz/F,[1]; single oral dose 50 mg,63 ± 25 L
same,Vd/F (0-24),"[2]; daily 40 mg, Day 1",127.83 ± 99.22 L
same,Vd/F(0-infinity),"[2]; daily 40 mg, Day 1",49.69 ± 22.44 L
same,Vd/F (0-24),"[2]; daily 40 mg, Day 14",44.72 ± 37.40 L
same,Vd/F(0-infinity),"[2]; daily 40 mg, Day 14",16.58 ± 9.23 L
same,Vd/F (0-24),"[2]; daily 80 mg, Day 14",38.35 ± 10.57 L
same,Vd/F(0-infinity),"[2]; daily 80 mg, Day 14",16.87 ± 4.65 L
same,Vd/F,"[3]; daily 5 mg, Day 1",120.84 L
same,Vd/F,"[3]; daily 5 mg, Day 14",40.98 L
same,Vd/F,"[3]; daily 10 mg, Day 1",105.40 L
same,Vd/F,"[3]; daily 10 mg, Day 14",40.64 L
same,Vd/F,"[3]; daily 20 mg, Day 1",205.91 L
same,Vd/F,"[3]; daily 20 mg, Day 14",47.71 L
same,Vd/F,"[3]; daily 30 mg, Day 1",316.00 L
same,Vd/F,"[3]; daily 30 mg, Day 14",39.39 L
same,Vd/F (0-24),[4]; 1 × 10 mg coated fasting,75.5 L
same,Vd/F (from 144),[4]; 1 × 10 mg coated fasting,92.1 L
same,Vd/F (0-24),[4]; 1 × 10 mg coated fed,57.8 L
same,Vd/F (from 144),[4]; 1 × 10 mg coated fed,70.0 L
same,Vd/F (0-24),[4]; 1 × 10 mg non-coated fasting,21.4 L
same,Vd/F (from 144),[4]; 1 × 10 mg non-coated fasting,36.5 L
same,Vd/F (0-24),[4]; 1 × 10 mg non-coated fed,23.7 L
same,Vd/F (from 144),[4]; 1 × 10 mg non-coated fed,43.1 L
same,Vd/F (0-24),[4]; 1 × 20 mg coated fasting,101.3 L
same,Vd/F (from 144),[4]; 1 × 20 mg coated fasting,105.9 L
same,Vd/F (0-24),[4]; 1 × 20 mg coated fed,82.9 L
same,Vd/F (from 144),[4]; 1 × 20 mg coated fed,88.0 L
same,Vd/F (0-24),[4]; 1 × 20 mg non-coated fasting,27.2 L
same,Vd/F (from 144),[4]; 1 × 20 mg non-coated fasting,44.8 L
same,Vd/F (0-24),[4]; 1 × 20 mg non-coated fed,35.2 L
same,Vd/F (from 144),[4]; 1 × 20 mg non-coated fed,44.4 L
same,Vd/F (0-24),[4]; 2 × 10 mg coated fasting,65.0 L
same,Vd/F (from 144),[4]; 2 × 10 mg coated fasting,89.5 L
same,Vd/F (0-24),[4]; 2 × 10 mg coated fed,54.2 L
same,Vd/F (from 144),[4]; 2 × 10 mg coated fed,60.8 L
same,Vd/F (0-24),[4]; 2 × 10 mg non-coated fasting,24.8 L
same,Vd/F (from 144),[4]; 2 × 10 mg non-coated fasting,42.7 L
same,Vd/F (0-24),[4]; 2 × 10 mg non-coated fed,28.8 L
same,Vd/F (from 144),[4]; 2 × 10 mg non-coated fed,41.8 L
same,effect of coated capsules on AUC and Cmax,[4]; enteric coated vs non-coated,significantly lowered
same,food effect on AUC and Cmax,[4]; fed vs fasting,no statistically significant differences observed between fed and fasting subjects
